# Publication PMC5996148
# “And” between values parts separate entries of the source, which are not always exact repeats. Identical values can stand only once. Some of the results follow.
# How the values were obtained:
# Experiment in all cases: protein microarray (ProtoArray v5.0), streptavidin-Alexa Fluor 647
# Settings in all cases: 3'-biotin; 20 mM Tris (pH 7.5), 5 mM MgCl2, 100 mM KCl, 0.1% Tween-20, A/T-rich and random oligonucleotide blockers; temperature not stated; high values mean tight binding
# HPCA (human) = test system: HPCA (human)
# HPCAL1 (human) = test system: HPCAL1 (human)
# HPCAL4 (human) = test system: HPCAL4 (human)
# HPGD (human) = test system: HPGD (human)
# HPRT1 (human) = test system: HPRT1 (human)
# HPS4 (human) = test system: HPS4 (human)
# HRASLS (human) = test system: HRASLS (human)
# HS2ST1 (human) = test system: HS2ST1 (human)
# HS3ST1 (human) = test system: HS3ST1 (human)
# HSBP1 (human) = test system: HSBP1 (human)
sequence,measurement,setting,value
GGGAGGCTGAGGCAGG [G4-1 biotinylated (PQS2)],binding signal,HPCA (human),-0.328 z-score
same,binding signal,HPCAL1 (human),-0.357 z-score
same,binding signal,HPCAL4 (human),-0.304 z-score
same,binding signal,HPGD (human),-0.343 z-score
same,binding signal,HPRT1 (human),-0.34 z-score
same,binding signal,HPS4 (human),-0.262 z-score
same,binding signal,HRASLS (human),-0.273 z-score
same,binding signal,HS2ST1 (human),-0.334 z-score
same,binding signal,HS3ST1 (human),-0.347 z-score and -0.342 z-score
same,binding signal,HSBP1 (human),-0.347 z-score
